Measurements from the supplement of paper PMC11006884.
This is a selection; strong and weak results do not stand in their true shares.

The chains behind the UniProt entries cited, without tags or fusion partners. Where a name states a change or a piece, a line headed by the entry shows the natural chain unless it says otherwise.
UniProt Q96F86: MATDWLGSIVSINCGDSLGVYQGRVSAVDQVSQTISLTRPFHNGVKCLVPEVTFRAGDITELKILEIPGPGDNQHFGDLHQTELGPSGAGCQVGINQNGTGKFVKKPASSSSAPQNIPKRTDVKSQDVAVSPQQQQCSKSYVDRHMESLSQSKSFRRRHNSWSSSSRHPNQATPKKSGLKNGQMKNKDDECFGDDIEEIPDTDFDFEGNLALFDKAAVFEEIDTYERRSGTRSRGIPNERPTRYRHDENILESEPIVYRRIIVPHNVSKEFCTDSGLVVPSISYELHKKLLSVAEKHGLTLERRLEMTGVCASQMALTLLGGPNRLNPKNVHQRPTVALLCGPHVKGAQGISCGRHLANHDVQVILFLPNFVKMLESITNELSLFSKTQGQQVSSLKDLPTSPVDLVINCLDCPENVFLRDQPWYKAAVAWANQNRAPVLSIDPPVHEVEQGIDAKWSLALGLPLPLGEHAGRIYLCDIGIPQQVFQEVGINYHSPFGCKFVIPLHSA
UniProt Q92888: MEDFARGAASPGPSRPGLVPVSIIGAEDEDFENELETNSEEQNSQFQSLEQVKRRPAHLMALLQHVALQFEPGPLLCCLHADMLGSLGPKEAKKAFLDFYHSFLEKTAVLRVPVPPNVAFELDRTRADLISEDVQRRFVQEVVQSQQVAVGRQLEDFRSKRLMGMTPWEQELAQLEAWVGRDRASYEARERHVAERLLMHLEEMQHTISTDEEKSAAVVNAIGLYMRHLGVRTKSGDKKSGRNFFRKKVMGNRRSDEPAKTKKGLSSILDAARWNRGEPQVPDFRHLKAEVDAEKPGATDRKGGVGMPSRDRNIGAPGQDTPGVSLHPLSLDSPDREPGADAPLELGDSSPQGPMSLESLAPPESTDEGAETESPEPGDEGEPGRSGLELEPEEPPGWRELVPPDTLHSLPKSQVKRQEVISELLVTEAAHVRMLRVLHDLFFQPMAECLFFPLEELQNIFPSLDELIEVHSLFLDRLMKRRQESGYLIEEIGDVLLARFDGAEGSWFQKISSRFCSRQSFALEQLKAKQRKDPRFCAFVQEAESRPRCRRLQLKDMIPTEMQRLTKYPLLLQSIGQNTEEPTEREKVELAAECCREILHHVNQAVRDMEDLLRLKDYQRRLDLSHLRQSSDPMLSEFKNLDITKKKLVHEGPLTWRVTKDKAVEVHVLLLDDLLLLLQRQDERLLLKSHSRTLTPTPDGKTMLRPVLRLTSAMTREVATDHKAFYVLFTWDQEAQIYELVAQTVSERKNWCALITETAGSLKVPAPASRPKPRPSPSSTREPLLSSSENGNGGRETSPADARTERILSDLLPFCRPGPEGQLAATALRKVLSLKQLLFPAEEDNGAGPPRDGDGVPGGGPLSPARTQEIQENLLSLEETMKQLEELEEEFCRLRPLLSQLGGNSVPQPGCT
UniProt Q92576, whole entry, looked up: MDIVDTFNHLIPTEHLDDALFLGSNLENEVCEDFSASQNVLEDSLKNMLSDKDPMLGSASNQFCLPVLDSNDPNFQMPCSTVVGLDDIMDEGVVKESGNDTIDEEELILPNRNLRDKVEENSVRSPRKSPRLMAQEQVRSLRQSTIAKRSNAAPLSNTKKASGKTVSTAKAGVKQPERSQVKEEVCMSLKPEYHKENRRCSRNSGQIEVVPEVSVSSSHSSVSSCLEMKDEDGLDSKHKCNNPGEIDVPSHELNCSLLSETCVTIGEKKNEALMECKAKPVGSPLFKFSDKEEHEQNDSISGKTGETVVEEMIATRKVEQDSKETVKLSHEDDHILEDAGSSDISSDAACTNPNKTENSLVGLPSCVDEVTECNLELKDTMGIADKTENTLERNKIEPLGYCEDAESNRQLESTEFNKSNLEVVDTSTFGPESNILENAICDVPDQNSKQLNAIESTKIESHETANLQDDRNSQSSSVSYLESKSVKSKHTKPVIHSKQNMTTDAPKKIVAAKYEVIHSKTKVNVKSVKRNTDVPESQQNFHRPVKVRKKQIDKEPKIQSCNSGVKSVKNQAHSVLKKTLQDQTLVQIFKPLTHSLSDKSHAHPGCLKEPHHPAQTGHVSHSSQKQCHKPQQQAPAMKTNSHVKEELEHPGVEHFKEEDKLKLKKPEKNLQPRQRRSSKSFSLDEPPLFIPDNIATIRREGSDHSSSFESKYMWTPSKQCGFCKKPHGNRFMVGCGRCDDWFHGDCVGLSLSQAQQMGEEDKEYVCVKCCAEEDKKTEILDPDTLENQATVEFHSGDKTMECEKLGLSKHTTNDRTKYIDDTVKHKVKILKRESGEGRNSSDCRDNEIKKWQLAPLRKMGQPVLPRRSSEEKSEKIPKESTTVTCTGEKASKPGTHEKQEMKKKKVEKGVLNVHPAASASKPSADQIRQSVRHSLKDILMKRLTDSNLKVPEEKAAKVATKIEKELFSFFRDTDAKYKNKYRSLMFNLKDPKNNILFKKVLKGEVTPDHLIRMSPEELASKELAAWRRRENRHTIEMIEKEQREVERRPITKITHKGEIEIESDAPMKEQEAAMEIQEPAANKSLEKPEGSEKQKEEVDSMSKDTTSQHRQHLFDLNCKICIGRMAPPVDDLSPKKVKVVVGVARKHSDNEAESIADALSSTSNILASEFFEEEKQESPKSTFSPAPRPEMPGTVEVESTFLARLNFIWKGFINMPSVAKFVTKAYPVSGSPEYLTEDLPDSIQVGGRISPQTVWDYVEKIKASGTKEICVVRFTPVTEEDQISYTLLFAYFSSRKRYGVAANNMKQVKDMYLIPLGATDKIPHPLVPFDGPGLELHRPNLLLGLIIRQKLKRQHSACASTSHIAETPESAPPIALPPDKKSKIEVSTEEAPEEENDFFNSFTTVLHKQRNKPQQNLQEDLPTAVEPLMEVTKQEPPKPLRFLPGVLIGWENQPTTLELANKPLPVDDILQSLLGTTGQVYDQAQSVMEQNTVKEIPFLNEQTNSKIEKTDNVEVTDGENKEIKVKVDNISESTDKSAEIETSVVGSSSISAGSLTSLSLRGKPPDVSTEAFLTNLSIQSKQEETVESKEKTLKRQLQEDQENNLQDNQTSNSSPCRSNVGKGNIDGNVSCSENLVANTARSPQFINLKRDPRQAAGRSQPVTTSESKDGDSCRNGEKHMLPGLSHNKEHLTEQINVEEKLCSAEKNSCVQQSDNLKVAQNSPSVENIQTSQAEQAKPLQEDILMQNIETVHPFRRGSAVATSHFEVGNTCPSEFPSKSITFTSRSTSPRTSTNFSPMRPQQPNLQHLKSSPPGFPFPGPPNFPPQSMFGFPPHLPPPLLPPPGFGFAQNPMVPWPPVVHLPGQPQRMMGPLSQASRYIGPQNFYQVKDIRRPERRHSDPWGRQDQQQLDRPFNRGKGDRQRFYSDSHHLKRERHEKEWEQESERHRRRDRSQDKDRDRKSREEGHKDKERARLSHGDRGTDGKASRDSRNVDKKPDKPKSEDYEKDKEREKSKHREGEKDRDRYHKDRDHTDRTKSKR
UniProt Q96HJ9: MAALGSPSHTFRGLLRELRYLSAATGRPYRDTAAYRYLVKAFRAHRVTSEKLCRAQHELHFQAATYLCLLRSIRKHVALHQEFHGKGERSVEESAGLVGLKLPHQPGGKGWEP
UniProt Q92879: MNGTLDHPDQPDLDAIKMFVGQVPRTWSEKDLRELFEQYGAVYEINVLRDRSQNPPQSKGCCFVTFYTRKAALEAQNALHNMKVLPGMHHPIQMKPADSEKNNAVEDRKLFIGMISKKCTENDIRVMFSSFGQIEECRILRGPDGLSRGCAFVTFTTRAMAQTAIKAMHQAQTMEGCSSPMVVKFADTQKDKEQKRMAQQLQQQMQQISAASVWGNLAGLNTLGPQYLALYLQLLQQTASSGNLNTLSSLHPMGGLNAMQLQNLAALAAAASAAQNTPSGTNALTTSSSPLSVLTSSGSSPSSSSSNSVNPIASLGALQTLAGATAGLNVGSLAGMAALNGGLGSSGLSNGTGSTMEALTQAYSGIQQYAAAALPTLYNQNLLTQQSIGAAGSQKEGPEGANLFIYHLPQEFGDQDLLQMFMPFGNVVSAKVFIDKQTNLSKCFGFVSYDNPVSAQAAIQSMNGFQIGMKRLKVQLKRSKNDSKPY
UniProt Q92538, whole entry, looked up: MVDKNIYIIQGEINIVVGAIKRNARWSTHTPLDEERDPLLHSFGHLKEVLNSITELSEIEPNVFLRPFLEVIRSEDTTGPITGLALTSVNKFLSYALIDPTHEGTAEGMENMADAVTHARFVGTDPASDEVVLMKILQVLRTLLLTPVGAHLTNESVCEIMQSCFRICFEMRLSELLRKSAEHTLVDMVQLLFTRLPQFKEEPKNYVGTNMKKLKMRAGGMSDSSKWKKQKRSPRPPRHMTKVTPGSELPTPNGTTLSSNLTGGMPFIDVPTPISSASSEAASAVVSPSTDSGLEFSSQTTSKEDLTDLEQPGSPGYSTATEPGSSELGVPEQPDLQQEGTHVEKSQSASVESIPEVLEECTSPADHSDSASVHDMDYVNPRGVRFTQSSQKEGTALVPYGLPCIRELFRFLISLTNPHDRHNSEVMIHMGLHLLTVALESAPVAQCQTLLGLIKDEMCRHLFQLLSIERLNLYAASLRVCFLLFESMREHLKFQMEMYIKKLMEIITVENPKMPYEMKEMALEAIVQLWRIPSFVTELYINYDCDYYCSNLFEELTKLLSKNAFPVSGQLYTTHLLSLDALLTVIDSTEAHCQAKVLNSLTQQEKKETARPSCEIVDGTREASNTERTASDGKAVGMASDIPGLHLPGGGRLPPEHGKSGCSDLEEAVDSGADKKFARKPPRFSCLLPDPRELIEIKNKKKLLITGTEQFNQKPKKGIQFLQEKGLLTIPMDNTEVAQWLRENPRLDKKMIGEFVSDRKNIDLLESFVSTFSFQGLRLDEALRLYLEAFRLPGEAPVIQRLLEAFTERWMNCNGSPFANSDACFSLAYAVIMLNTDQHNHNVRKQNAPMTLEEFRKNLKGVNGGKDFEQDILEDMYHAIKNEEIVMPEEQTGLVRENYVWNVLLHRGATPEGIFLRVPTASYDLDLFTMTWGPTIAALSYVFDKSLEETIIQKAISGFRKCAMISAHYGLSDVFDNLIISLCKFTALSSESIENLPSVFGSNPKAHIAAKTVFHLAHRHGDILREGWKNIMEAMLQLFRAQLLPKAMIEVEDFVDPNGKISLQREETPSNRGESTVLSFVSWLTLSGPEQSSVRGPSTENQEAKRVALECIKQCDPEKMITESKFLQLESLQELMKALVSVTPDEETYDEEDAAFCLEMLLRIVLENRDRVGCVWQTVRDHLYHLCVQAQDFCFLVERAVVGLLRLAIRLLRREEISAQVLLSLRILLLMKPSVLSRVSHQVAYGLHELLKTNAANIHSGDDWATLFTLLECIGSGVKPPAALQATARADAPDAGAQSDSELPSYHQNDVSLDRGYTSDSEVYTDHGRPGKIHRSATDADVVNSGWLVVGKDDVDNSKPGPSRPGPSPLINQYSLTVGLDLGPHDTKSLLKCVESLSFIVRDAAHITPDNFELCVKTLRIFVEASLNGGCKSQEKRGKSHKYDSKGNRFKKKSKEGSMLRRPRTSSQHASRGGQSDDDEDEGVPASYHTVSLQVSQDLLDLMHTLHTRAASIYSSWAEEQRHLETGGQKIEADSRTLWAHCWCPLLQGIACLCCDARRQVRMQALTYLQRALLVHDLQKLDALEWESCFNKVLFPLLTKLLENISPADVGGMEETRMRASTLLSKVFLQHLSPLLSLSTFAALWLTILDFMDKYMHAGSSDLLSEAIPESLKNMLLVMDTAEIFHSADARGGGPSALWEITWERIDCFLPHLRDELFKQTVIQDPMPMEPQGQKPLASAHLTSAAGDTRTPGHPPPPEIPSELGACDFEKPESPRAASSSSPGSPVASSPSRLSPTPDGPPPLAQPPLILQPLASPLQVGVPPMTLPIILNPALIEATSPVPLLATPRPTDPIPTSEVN
UniProt Q96B54: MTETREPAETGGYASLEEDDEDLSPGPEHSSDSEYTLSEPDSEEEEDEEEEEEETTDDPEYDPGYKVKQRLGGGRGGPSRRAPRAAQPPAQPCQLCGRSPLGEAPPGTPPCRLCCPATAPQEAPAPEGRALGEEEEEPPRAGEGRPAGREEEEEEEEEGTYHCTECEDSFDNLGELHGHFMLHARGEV
UniProt Q96GD4, whole entry: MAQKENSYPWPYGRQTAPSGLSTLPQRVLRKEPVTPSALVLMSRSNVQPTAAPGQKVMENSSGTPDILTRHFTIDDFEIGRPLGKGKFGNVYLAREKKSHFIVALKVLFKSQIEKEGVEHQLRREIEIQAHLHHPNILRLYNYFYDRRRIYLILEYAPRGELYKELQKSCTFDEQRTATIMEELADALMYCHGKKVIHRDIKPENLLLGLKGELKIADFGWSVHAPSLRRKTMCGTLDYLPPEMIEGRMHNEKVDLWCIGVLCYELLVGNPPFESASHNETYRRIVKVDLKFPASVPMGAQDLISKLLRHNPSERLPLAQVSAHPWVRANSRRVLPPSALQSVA

Compound: COC(=O)C#Cc1ccccc1 [methyl 3-phenylpropiolate]
Experiment: log2 ratio of iodoacetamide-alkyne labeling of the cysteine site, DMSO over compound (competition); higher = stronger covalent engagement of the cysteine by the compound, active = 1 or more
Conditions: 500 µM; treatment time 1 h; system: HEK293T cell lysate
How it was run: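 HEK293T lysate (2 mg/mL) was incubated with electrophile (500 µM) or vehicle for 1 h at ambient temperature and then with iodoacetamide alkyne for 1 h. Labelled proteins were clicked to sCIP-TMT reagents, pooled, digested, enriched on streptavidin and measured by Orbitrap Eclipse LC-MS/MS with FAIMS, with FragPipe quantification. The per-cysteine log2 competition ratio is mean control-channel reporter intensity over mean compound-channel reporter intensity. Across three replicates with duplicate channels, cysteines quantified in only one replicate were excluded.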

**Q.** For UniProt Q96FZ2_C266, which “log2 ratio of iodoacetamide-alkyne labeling” value (from here on “log2 ratio”) is on record?
**A.** inactive: 0.0204

**Q.** With DPF2 C374 (UniProt Q92785) as the target, how does the “log2 ratio” value read?
**A.** inactive: 0.269

**Q.** How did the “log2 ratio” value turn out when EDC3 C47 (UniProt Q96F86) was run?
**A.** inactive: 0.179

**Q.** With EDC3 C410 (UniProt Q96F86) as the target, how does the “log2 ratio” value read?
**A.** inactive: 0.216

**Q.** UniProt Q96EY4_C162 was tested. Which “log2 ratio” value did it give?
**A.** inactive: 0.148

**Q.** With UniProt Q92888_C815 as the target, how does the “log2 ratio” value read?
**A.** inactive: 0.354

**Q.** Which “log2 ratio” value does the source give for TNPO1 C103 (UniProt Q92973) here?
**A.** inactive: 0.421

**Q.** PHF3 C843 (UniProt Q92576) was tested. Which “log2 ratio” value did it give?
**A.** inactive: 0.585

**Q.** For PHF3 C885 (UniProt Q92576), which “log2 ratio” value is on record?
**A.** inactive: 0.985

**Q.** Which “log2 ratio” value does the source give for MRPS27 C49 (UniProt Q92552) here?
**A.** inactive: 0.0649

**Q.** For TUBGCP3 C18 (UniProt Q96CW5), which “log2 ratio” value is on record?
**A.** inactive: 0.523

**Q.** RNF25 C360 (UniProt Q96BH1) was tested. Which “log2 ratio” value did it give?
**A.** active: 1.07

**Q.** HSPH1 C650 (UniProt Q92598) was tested. Which “log2 ratio” value did it give?
**A.** inactive: 0.025

**Q.** Which “log2 ratio” value does the source give for FMC1 C68 (UniProt Q96HJ9) here?
**A.** inactive: 0.229

**Q.** UniProt Q92879_C150 was tested. Which “log2 ratio” value did it give?
**A.** inactive: -0.0192

**Q.** For GBF1 C613 (UniProt Q92538), which “log2 ratio” value is on record?
**A.** inactive: 0.825

**Q.** How did the “log2 ratio” value turn out when USP9X C1212 (UniProt Q93008) was run?
**A.** inactive: 0.4

**Q.** For ZNF428 C96 (UniProt Q96B54), which “log2 ratio” value is on record?
**A.** inactive: 0.191

**Q.** Which “log2 ratio” value does the source give for UniProt Q96GD4_C234 here?
**A.** inactive: 0.62

**Q.** For ANP32B C114 (UniProt Q92688), which “log2 ratio” value is on record?
**A.** inactive: 0.0691

**Q.** Which “log2 ratio” value does the source give for FUBP1 C332 (UniProt Q96AE4) here?
**A.** inactive: 0.285

**Q.** How did the “log2 ratio” value turn out when NDRG1 C272 (UniProt Q92597) was run?
**A.** inactive: 0.208

**Q.** With USP9X C842 (UniProt Q93008) as the target, how does the “log2 ratio” value read?
**A.** inactive: 0.417
